# Some of the results follow.
# Experiments:
# Experiment in all cases: glycan array binding signal (z-score within array); higher = stronger binding
# Settings in all cases: glycan notation: IUPAC condensed, linker removed
# Fuc(a1-2)Gal = target: Fuc(a1-2)Gal
# Outline: (§1)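 Glycan array binding is given as a within-array Z-score, which can be read as non-binding when negative. The arrays, 3228 of them, came from the Consortium for Functional Glycomics database and were retained only where the protein sequence was available. Z-scores were averaged across arrays of the same protein sequence at different concentrations or buffers and across linkers.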
# Fuc(a1-2)Gal(b1-3)GalNAc = target: Fuc(a1-2)Gal(b1-3)GalNAc
# Outline: as §1
# [1] = target: Fuc(a1-2)Gal(b1-3)GalNAc(a1-3)[Fuc(a1-2)]Gal(b1-4)Glc
# Outline: as §1
# [2] = target: Fuc(a1-2)Gal(b1-3)GalNAc(a1-3)[Fuc(a1-2)]Gal(b1-4)GlcNAc
# Outline: as §1
# [3] = target: Fuc(a1-2)Gal(b1-3)GalNAc(b1-3)Gal
# Outline: as §1
# [4] = target: Fuc(a1-2)Gal(b1-3)GalNAc(b1-3)Gal(a1-4)Gal(b1-4)Glc
# Outline: as §1
# [5] = target: Fuc(a1-2)Gal(b1-3)GalNAc(b1-4)[Neu5Ac(a2-3)]Gal(b1-4)Glc
# Outline: as §1
# Fuc(a1-2)Gal(b1-3)GlcNAc = target: Fuc(a1-2)Gal(b1-3)GlcNAc
# Outline: as §1
# [6] = target: Fuc(a1-2)Gal(b1-3)GlcNAc(b1-2)Man(a1-3)[Fuc(a1-2)Gal(b1-3)GlcNAc(b1-2)Man(a1-6)]Man(b1-4)GlcNAc(b1-4)GlcNAc
# Outline: as §1
# [7] = target: Fuc(a1-2)Gal(b1-3)GlcNAc(b1-2)Man(a1-3)[Fuc(a1-2)Gal(b1-3)GlcNAc(b1-2)Man(a1-6)]Man(b1-4)GlcNAc(b1-4)[Fuc(a1-6)]GlcNAc
# Outline: as §1
# [8] = target: Fuc(a1-2)Gal(b1-3)GlcNAc(b1-3)Gal(b1-4)Glc
# Outline: as §1
# [9] = target: Fuc(a1-2)Gal(b1-3)GlcNAc(b1-3)GalNAc
# Outline: as §1
# [10] = target: Fuc(a1-2)Gal(b1-3)GlcNAc(b1-3)[Fuc(a1-2)Gal(b1-3)GlcNAc(b1-6)]GalNAc
# Outline: as §1
# [11] = target: Fuc(a1-2)Gal(b1-3)GlcNAc(b1-3)[Gal(b1-4)GlcNAc(b1-6)]Gal(b1-4)Glc
# Outline: as §1
# [12] = target: Fuc(a1-2)Gal(b1-3)GlcNAc(b1-3)[Neu5Ac(a2-6)Gal(b1-4)GlcNAc(b1-6)]Gal(b1-4)Glc
# Outline: as §1
# [13] = target: Fuc(a1-2)Gal(b1-3)GlcNAc6S
# Outline: as §1
# [14] = target: Fuc(a1-2)Gal(b1-3)[Fuc(a1-4)]GlcNAc
# Outline: as §1
# [15] = target: Fuc(a1-2)Gal(b1-3)[Fuc(a1-4)]GlcNAc(b1-2)Man(a1-3)[Fuc(a1-2)Gal(b1-3)[Fuc(a1-4)]GlcNAc(b1-2)Man(a1-3)]Man(b1-4)GlcNAc(b1-4)GlcNAc
# Outline: as §1
# [16] = target: Fuc(a1-2)Gal(b1-3)[Fuc(a1-4)]GlcNAc(b1-2)Man(a1-3)[Fuc(a1-2)Gal(b1-3)[Fuc(a1-4)]GlcNAc(b1-2)Man(a1-6)]Man(b1-4)GlcNAc(b1-4)[Fuc(a1-6)]GlcNAc(b1-4)[Fuc(a1-6)]GlcNAc
# Outline: as §1
# [17] = target: Fuc(a1-2)Gal(b1-3)[Fuc(a1-4)]GlcNAc(b1-3)[Fuc(a1-3)[Gal(b1-4)]GlcNAc(b1-6)]Gal(b1-4)Glc
# Outline: as §1
# [18] = target: Fuc(a1-2)Gal(b1-3)[Fuc(a1-4)]GlcNAc(b1-3)[Gal(b1-4)GlcNAc(b1-6)]Gal(b1-4)Glc
# Outline: as §1
# Fuc(a1-2)Gal(b1-4)Glc = target: Fuc(a1-2)Gal(b1-4)Glc
# Outline: as §1
# Fuc(a1-2)Gal(b1-4)Glc6S = target: Fuc(a1-2)Gal(b1-4)Glc6S
# Outline: as §1
# Fuc(a1-2)Gal(b1-4)GlcNAc = target: Fuc(a1-2)Gal(b1-4)GlcNAc
# Outline: as §1
# [19] = target: Fuc(a1-2)Gal(b1-4)GlcNAc(b1-2)Man
# Outline: as §1
# [20] = target: Fuc(a1-2)Gal(b1-4)GlcNAc(b1-2)Man(a1-3)[Fuc(a1-2)Gal(b1-4)GlcNAc(b1-2)Man(a1-6)]Man(b1-4)GlcNAc(b1-4)GlcNAc
# Outline: as §1
# [21] = target: Fuc(a1-2)Gal(b1-4)GlcNAc(b1-2)Man(a1-3)[Fuc(a1-2)Gal(b1-4)GlcNAc(b1-2)Man(a1-6)]Man(b1-4)GlcNAc(b1-4)[Fuc(a1-6)]GlcNAc
# Outline: as §1
# [22] = target: Fuc(a1-2)Gal(b1-4)GlcNAc(b1-2)[Fuc(a1-2)Gal(b1-4)GlcNAc(b1-4)]Man(a1-3)[Fuc(a1-2)Gal(b1-4)GlcNAc(b1-2)Man(a1-6)]Man(b1-4)GlcNAc(b1-4)GlcNAc
# Outline: as §1
# [23] = target: Fuc(a1-2)Gal(b1-4)GlcNAc(b1-3)Gal(b1-4)GlcNAc
# Outline: as §1
# [24] = target: Fuc(a1-2)Gal(b1-4)GlcNAc(b1-3)Gal(b1-4)GlcNAc(b1-2)Man(a1-3)[Fuc(a1-2)Gal(b1-4)GlcNAc(b1-3)Gal(b1-4)GlcNAc(b1-2)Man(a1-6)]Man(b1-4)GlcNAc(b1-4)GlcNAc
# Outline: as §1
binder,measurement,setting,value
"Thrombomodulin Extracellular (Mus musculus), P15306 (protein) MLGIFFLGVLAPASLGLSALAKLQPTGSQCVEHECFALFQGPATFLDASQACQRLQGHLMTVRSSVAADVISLLLSQSSMDLGPWIGLQLPQGCDDPVHLGPLRGFQWVTGDNHTSYSRWARPNDQTAPLCGPLCVTVSTATEAAPGEPAWEEKPCETETQGFLCEFYFTASCRPLTVNTRDPEAAHISSTYNTPFGVSGADFQTLPVGSSAAVEPLGLELVCRAPPGTSEGHWAWEATGAWNCSVENGGCEYLCNRSTNEPRCLCPRDMDLQADGRSCARPVVQSCNELCEHFCVSNAEVPGSYSCMCETGYQLAADGHRCEDVDDCKQGPNPCPQLCVNTKGGFECFCYDGYELVDGECVELLDPCFGSNCEFQCQPVSPTDYRCICAPGFAPKPDEPHKCEMFCNETSCPADCDPNSPTVCECPEGFILDEGSVCTDIDECSQGECFTSECRNFPGSYECICGPDTALAGQISKDCDPIPVREDTKEEEGSGEPPVSPTPGSPTGPPSARPVHSGVLIGISIASLSLVVALLALLCHLRKKQGAARAELEYKCASSAKEVVLQHVRTDRTLQKF",glycan array binding signal (z-score),Fuc(a1-2)Gal,0.249
same,glycan array binding signal (z-score),Fuc(a1-2)Gal(b1-3)GalNAc,-0.717
same,glycan array binding signal (z-score),[1],0.599
same,glycan array binding signal (z-score),[2],0.681
same,glycan array binding signal (z-score),[3],-0.899
same,glycan array binding signal (z-score),[4],0.433
same,glycan array binding signal (z-score),[5],-0.952
same,glycan array binding signal (z-score),Fuc(a1-2)Gal(b1-3)GlcNAc,-0.798
same,glycan array binding signal (z-score),[6],2.48
same,glycan array binding signal (z-score),[7],0.563
same,glycan array binding signal (z-score),[8],-0.964
same,glycan array binding signal (z-score),[9],0.214
same,glycan array binding signal (z-score),[10],-0.749
same,glycan array binding signal (z-score),[11],-0.09
same,glycan array binding signal (z-score),[12],-0.306
same,glycan array binding signal (z-score),[13],-1.7
same,glycan array binding signal (z-score),[14],1.09
same,glycan array binding signal (z-score),[15],-0.026
same,glycan array binding signal (z-score),[16],0.537
same,glycan array binding signal (z-score),[17],2.24
same,glycan array binding signal (z-score),[18],0.702
same,glycan array binding signal (z-score),Fuc(a1-2)Gal(b1-4)Glc,1.97
same,glycan array binding signal (z-score),Fuc(a1-2)Gal(b1-4)Glc6S,1.37
same,glycan array binding signal (z-score),Fuc(a1-2)Gal(b1-4)GlcNAc,-0.429
same,glycan array binding signal (z-score),[19],-0.956
same,glycan array binding signal (z-score),[20],1.3
same,glycan array binding signal (z-score),[21],1.12
same,glycan array binding signal (z-score),[22],0.491
same,glycan array binding signal (z-score),[23],0.406
same,glycan array binding signal (z-score),[24],-0.535

# Reprinted at random: 2 entries already listed, in no set order.
binder,measurement,setting,value
"Thrombomodulin Extracellular (Mus musculus), P15306 (protein) MLGIFFLGVLAPASLGLSALAKLQPTGSQCVEHECFALFQGPATFLDASQACQRLQGHLMTVRSSVAADVISLLLSQSSMDLGPWIGLQLPQGCDDPVHLGPLRGFQWVTGDNHTSYSRWARPNDQTAPLCGPLCVTVSTATEAAPGEPAWEEKPCETETQGFLCEFYFTASCRPLTVNTRDPEAAHISSTYNTPFGVSGADFQTLPVGSSAAVEPLGLELVCRAPPGTSEGHWAWEATGAWNCSVENGGCEYLCNRSTNEPRCLCPRDMDLQADGRSCARPVVQSCNELCEHFCVSNAEVPGSYSCMCETGYQLAADGHRCEDVDDCKQGPNPCPQLCVNTKGGFECFCYDGYELVDGECVELLDPCFGSNCEFQCQPVSPTDYRCICAPGFAPKPDEPHKCEMFCNETSCPADCDPNSPTVCECPEGFILDEGSVCTDIDECSQGECFTSECRNFPGSYECICGPDTALAGQISKDCDPIPVREDTKEEEGSGEPPVSPTPGSPTGPPSARPVHSGVLIGISIASLSLVVALLALLCHLRKKQGAARAELEYKCASSAKEVVLQHVRTDRTLQKF",glycan array binding signal (z-score),[3],-0.899
same,glycan array binding signal (z-score),[13],-1.7

# — the supplement of paper PMC8728848
